In the test the test system is CD2F1 mice, L1210 leukemia ip, survival T/C. Description: NCI In Vivo Anticancer Drug Screen. Data for tumor model L1210 Leukemia (intraperitoneal) in CD2F1 (CDF1) mice. The conditions noted are these: T/C endpoint: mean survival time, higher T/C = longer survival. The method, boiled down: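 Vehicle-treated tumor-bearing mice served as controls (C) for compound-treated mice (T). Reported figure is T divided by C.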

Setting [1] is: dose: 0.75 mg/kg/injection, schedule: Q01DX009 (ip), vehicle: Klucel (hydroxypropylcellulose) (HPC).
Where [2] appears, read: dose: 75.0 mg/kg/injection, schedule: Q01DX001 (ip), vehicle: other.
Where [3] appears, read: dose: 150.0 mg/kg/injection, schedule: Q01DX001 (ip), vehicle: other.
The mark [4] stands for this setting: dose: 300.0 mg/kg/injection, schedule: Q01DX001 (ip), vehicle: other.
[5] abbreviates: dose: 125.0 mg/kg/injection, schedule: Q01DX001 (ip), vehicle: DMSO.
The mark [6] stands for this setting: dose: 250.0 mg/kg/injection, schedule: Q01DX001 (ip), vehicle: DMSO.
Where [7] appears, read: dose: 500.0 mg/kg/injection, schedule: Q01DX001 (ip), vehicle: DMSO.

The list does not hold the whole screen: it covers a few groups of compounds. Not every dose and run of a compound is shown. T/C: endpoint of the treated group in % of that of the vehicle group. Some entries give survivors of the animals treated and no T/C: the source files T/C as zero there, which appears to mark a toxic dose or a test without result, not a measured value. Some doses without a T/C left all or most animals alive at the check, yet need not have been tolerated: the source hardly ever lists a survival T/C far under the control, and the zero likely stands for such cases as well. Survivors were counted at the toxicity check, usually on the fifth day, unless a day is given; later deaths do not show. Schedules are NCI's codes, taken here to give the interval after Q, in days (D) or hours (H), and the number of doses after X. Where survival is the endpoint, the PubChem record calls one and a half times the control and up active, and a quarter to a half above the control has no call in these data; cut-offs in other NCI protocols can differ. Some entries show no survivor count and are marked so; the dose need not have been tolerated. Some T/C values are followed by the survivors on the day toxicity was checked, most often the fifth; without a count or a note in brackets, all were alive then.

Regarding `CC12CCCC1(OO)OOC2=O` (centres undefined), the T/C runs as follows: (dose: 2.5 mg/kg/injection, schedule: Q01DX009 (ip), vehicle: saline with Tween-80) 102 % of control; (dose: 5.0 mg/kg/injection, schedule: Q01DX001 (ip), vehicle: saline with Tween-80) 91 % of control; (dose: 5.0 mg/kg/injection, schedule: Q01DX009 (ip), vehicle: saline with Tween-80) 93 % of control; (dose: 10.0 mg/kg/injection, schedule: Q01DX001 (ip), vehicle: saline with Tween-80) 93 % of control; (dose: 10.0 mg/kg/injection, schedule: Q01DX009 (ip), vehicle: saline with Tween-80) 94 % of control [4 of 6 alive]. The survivor count (dose: 20.0 mg/kg/injection, schedule: Q01DX001 (ip), vehicle: saline with Tween-80) is listed as 0 of 6; the survivor count (dose: 100.0 mg/kg/injection, schedule: Q01DX001 (ip), vehicle: saline with Tween-80) is listed as 0 of 6; the survivor count (dose: 200.0 mg/kg/injection, schedule: Q01DX001 (ip), vehicle: saline with Tween-80) is 0 of 6; the survivor count (dose: 400.0 mg/kg/injection, schedule: Q01DX001 (ip), vehicle: saline with Tween-80) was 0 of 6.

For the molecule `Cc1cc(N(CCBr)CCBr)ccc1N`, the T/C (dose: 0.18 mg/kg/injection, schedule: Q01DX009 (ip), vehicle: Klucel (hydroxypropylcellulose) (HPC)) was 117 % of control; the T/C (dose: 0.37 mg/kg/injection, schedule: Q01DX009 (ip), vehicle: Klucel (hydroxypropylcellulose) (HPC)) was 108 % of control; the T/C under setting [1] was 101 % of control. Further, the survivor count reads like this: under setting [1], 6 of 6; (dose: 1.5 mg/kg/injection, schedule: Q01DX009 (ip), vehicle: Klucel (hydroxypropylcellulose) (HPC)) 5 of 6; (dose: 3.0 mg/kg/injection, schedule: Q01DX009 (ip), vehicle: Klucel (hydroxypropylcellulose) (HPC)) 0 of 6; (dose: 6.25 mg/kg/injection, schedule: Q01DX009 (ip), vehicle: Klucel (hydroxypropylcellulose) (HPC)) 1 of 6; (dose: 12.5 mg/kg/injection, schedule: Q01DX009 (ip), vehicle: Klucel (hydroxypropylcellulose) (HPC)) 0 of 6; (dose: 25.0 mg/kg/injection, schedule: Q01DX009 (ip), vehicle: Klucel (hydroxypropylcellulose) (HPC)) 0 of 6. The survivor count reads like this: (dose: 50.0 mg/kg/injection, schedule: Q01DX009 (ip), vehicle: Klucel (hydroxypropylcellulose) (HPC)) 0 of 3; (dose: 100.0 mg/kg/injection, schedule: Q01DX009 (ip), vehicle: Klucel (hydroxypropylcellulose) (HPC)) 0 of 3; (dose: 200.0 mg/kg/injection, schedule: Q01DX009 (ip), vehicle: Klucel (hydroxypropylcellulose) (HPC)) 0 of 3.

`CC(O)CNC1CCCCC1.O=[N+]([O-])c1cc([N+](=O)[O-])c(O)c([N+](=O)[O-])c1`: the T/C by setting is: under setting [2], 89 % of control [survivor count not shown]; under setting [3], 97 % of control [survivor count not shown]; under setting [4], 96 % of control [survivor count not shown].

`S=P(Cl)(Cl)c1ccc(Cl)cc1`: the T/C reads like this: (dose: 25.0 mg/kg/injection, schedule: Q04DX003 (ip), vehicle: saline with Tween-80) 100 % of control; (dose: 50.0 mg/kg/injection, schedule: Q04DX003 (ip), vehicle: saline with Tween-80) 98 % of control. For the same molecule, the survivor count (dose: 100.0 mg/kg/injection, schedule: Q04DX003 (ip), vehicle: saline with Tween-80) was 1 of 6.

With `CCNP(=O)(OCCC=O)N(CCCl)CCCl` (centres undefined), the T/C reads like this: under setting [5], 109 % of control; under setting [6], 112 % of control; (dose: 266.0 mg/kg/injection, schedule: Q01DX001 (ip), vehicle: DMSO) 98 % of control; (dose: 400.0 mg/kg/injection, schedule: Q01DX001 (ip), vehicle: DMSO) 97 % of control; under setting [7], 125 % of control; (dose: 600.0 mg/kg/injection, schedule: Q01DX001 (ip), vehicle: DMSO) 106 % of control. For the same molecule, the survivor count (dose: 900.0 mg/kg/injection, schedule: Q01DX001 (ip), vehicle: DMSO) is listed as 2 of 6.

On to `CC(CO)COP(=O)(N(CCCl)CCCl)N1CC1` (centres undefined), for which the T/C runs as follows: (dose: 15.62 mg/kg/injection, schedule: Q01DX001 (ip), vehicle: DMSO) 95 % of control; (dose: 31.3 mg/kg/injection, schedule: Q01DX001 (ip), vehicle: DMSO) 95 % of control; (dose: 62.5 mg/kg/injection, schedule: Q01DX001 (ip), vehicle: DMSO) 97 % of control; under setting [5], 95 % of control; under setting [6], 97 % of control; under setting [7], 104 % of control.

On to `CCN(CCNCCCNCCSP(=O)(O)O)c1cccc(C)c1`, for which the T/C is 104 % of control (dose: 1.5 mg/kg/injection, schedule: Q01DX009 (ip), vehicle: saline sonified); 104 % of control (dose: 3.0 mg/kg/injection, schedule: Q01DX009 (ip), vehicle: saline sonified); 104 % of control [5 of 6 alive] (dose: 6.0 mg/kg/injection, schedule: Q01DX009 (ip), vehicle: saline sonified). Moreover, the survivor count by setting is: (dose: 25.0 mg/kg/injection, schedule: Q01DX009 (ip), vehicle: saline with Tween-80) 1 of 6; (dose: 50.0 mg/kg/injection, schedule: Q01DX009 (ip), vehicle: saline with Tween-80) 0 of 6; (dose: 100.0 mg/kg/injection, schedule: Q01DX009 (ip), vehicle: saline with Tween-80) 1 of 6.

Consider `CC(C)CC(CC(C)C)NC(C)CO.O=[N+]([O-])c1cc([N+](=O)[O-])c(O)c([N+](=O)[O-])c1`, for which the T/C was 100 % of control under setting [2] and 103 % of control under setting [3]. Further, the survivor count under setting [4] is 0 of 6.

As for `CC[O+](CC)CC`, the T/C was 96 % of control (dose: 6.25 mg/kg/injection, schedule: Q04DX002 (ip), vehicle: saline); 104 % of control (dose: 12.5 mg/kg/injection, schedule: Q04DX002 (ip), vehicle: saline); 96 % of control (dose: 25.0 mg/kg/injection, schedule: Q04DX002 (ip), vehicle: saline).

`CS(=O)(=O)OC1CNP(=O)(N(CCCl)CCCl)OC1` (centres undefined): the T/C (dose: 21.9 mg/kg/injection, schedule: Q01DX001 (ip), vehicle: DMSO) is 107 % of control; the T/C (dose: 29.0 mg/kg/injection, schedule: Q01DX001 (ip), vehicle: DMSO) is 94 % of control; the T/C (dose: 43.8 mg/kg/injection, schedule: Q01DX001 (ip), vehicle: DMSO) is 100 % of control; the T/C (dose: 58.0 mg/kg/injection, schedule: Q01DX001 (ip), vehicle: DMSO) is 94 % of control; the T/C (dose: 87.5 mg/kg/injection, schedule: Q01DX001 (ip), vehicle: DMSO) was 107 % of control; the T/C (dose: 116.0 mg/kg/injection, schedule: Q01DX001 (ip), vehicle: DMSO) was 105 % of control. Further, the T/C (dose: 175.0 mg/kg/injection, schedule: Q01DX001 (ip), vehicle: DMSO) is 110 % of control; the T/C (dose: 232.0 mg/kg/injection, schedule: Q01DX001 (ip), vehicle: DMSO) is 107 % of control; the T/C (dose: 350.0 mg/kg/injection, schedule: Q01DX001 (ip), vehicle: DMSO) is 119 % of control; the T/C (dose: 464.0 mg/kg/injection, schedule: Q01DX001 (ip), vehicle: DMSO) is 117 % of control; the T/C (dose: 700.0 mg/kg/injection, schedule: Q01DX001 (ip), vehicle: DMSO) was 142 % of control; the T/C (dose: 928.0 mg/kg/injection, schedule: Q01DX001 (ip), vehicle: DMSO) is 134 % of control.

These data come from PubChem BioAssay AID256 (DTP/NCI, 2004).
